Test results: paper PMC12574955, “The Ync13–Rga7–Rng10 complex selectively coordinates secretory vesicle trafficking and secondary septum formation during cytokinesis” (PLOS Biology, 2025)
Results are given in words; binding and its absence hold for the method and conditions named. For some of these results: In cells and extracts the contact can be indirect. Some entries that bind do so weakly or less than the wild type. Sequences can lack the tags named with a protein.

T1: Smi1-mEGFP (Schizosaccharomyces pombe) (UniProt O14362)
T1 sequence: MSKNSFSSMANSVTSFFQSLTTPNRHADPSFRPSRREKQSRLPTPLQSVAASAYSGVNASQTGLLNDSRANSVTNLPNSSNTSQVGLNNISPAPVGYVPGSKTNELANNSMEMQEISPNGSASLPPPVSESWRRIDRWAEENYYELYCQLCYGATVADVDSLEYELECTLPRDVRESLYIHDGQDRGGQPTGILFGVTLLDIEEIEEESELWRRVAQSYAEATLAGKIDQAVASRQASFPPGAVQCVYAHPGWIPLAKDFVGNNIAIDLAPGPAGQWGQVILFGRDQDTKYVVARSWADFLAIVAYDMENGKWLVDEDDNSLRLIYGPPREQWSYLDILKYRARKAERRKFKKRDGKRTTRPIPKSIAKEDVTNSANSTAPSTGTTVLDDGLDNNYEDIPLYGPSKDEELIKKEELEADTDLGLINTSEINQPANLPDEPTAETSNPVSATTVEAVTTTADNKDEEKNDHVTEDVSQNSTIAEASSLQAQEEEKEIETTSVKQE

T2: Ync13-mECitrine (Schizosaccharomyces pombe) (UniProt O13683)
T2 sequence: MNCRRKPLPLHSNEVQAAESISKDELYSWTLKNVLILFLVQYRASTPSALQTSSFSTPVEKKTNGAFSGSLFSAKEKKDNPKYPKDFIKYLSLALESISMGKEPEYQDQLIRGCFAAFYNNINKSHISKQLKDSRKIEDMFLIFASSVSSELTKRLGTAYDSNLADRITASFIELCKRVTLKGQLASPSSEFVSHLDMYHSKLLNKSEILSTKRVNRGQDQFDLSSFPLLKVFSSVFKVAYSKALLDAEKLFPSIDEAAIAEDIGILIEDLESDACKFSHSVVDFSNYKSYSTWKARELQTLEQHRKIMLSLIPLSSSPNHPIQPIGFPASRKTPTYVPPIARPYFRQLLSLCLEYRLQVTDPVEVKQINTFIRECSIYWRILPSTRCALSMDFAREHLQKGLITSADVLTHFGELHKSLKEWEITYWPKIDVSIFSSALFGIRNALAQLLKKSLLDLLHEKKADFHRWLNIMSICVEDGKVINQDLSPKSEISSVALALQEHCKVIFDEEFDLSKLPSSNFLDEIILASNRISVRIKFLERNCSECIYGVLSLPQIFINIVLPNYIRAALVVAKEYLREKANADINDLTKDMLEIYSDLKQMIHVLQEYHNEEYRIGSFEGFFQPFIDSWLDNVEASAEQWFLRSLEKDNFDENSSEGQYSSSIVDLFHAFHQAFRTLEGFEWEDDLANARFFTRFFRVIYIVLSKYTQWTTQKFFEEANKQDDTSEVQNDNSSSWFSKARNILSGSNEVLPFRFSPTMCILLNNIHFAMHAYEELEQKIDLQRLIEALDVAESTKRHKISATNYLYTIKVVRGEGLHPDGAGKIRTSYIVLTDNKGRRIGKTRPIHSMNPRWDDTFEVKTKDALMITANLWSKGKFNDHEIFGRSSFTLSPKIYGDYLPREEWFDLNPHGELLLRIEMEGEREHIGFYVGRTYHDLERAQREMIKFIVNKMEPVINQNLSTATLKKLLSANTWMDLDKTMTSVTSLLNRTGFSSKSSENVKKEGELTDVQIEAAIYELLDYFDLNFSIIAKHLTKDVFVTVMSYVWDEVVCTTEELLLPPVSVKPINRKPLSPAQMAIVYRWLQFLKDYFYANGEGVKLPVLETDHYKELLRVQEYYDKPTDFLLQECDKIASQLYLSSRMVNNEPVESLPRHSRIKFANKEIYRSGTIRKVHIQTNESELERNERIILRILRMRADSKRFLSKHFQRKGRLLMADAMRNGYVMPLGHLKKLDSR

T3: Rga7-mEGFP (Schizosaccharomyces pombe) (UniProt O94466)
T3 sequence: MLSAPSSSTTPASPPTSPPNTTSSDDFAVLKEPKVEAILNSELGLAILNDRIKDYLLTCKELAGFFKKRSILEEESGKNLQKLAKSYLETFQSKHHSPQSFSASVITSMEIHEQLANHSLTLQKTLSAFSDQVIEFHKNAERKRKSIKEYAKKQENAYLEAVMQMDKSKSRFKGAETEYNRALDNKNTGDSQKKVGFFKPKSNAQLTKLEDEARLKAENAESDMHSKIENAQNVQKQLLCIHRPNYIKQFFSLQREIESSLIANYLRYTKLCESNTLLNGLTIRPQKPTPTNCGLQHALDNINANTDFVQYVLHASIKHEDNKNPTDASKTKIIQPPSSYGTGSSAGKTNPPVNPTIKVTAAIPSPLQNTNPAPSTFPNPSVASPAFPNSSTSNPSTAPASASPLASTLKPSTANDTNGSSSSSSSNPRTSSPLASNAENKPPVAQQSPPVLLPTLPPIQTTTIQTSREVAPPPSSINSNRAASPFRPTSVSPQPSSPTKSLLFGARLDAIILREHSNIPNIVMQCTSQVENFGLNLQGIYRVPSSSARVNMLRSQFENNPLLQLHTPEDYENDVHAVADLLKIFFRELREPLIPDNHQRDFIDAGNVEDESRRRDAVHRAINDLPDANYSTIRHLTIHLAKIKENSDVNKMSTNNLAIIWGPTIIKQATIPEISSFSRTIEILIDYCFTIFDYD

T4: Rng10-mEGFP (Schizosaccharomyces pombe) (UniProt Q9P6L9)
T4 sequence: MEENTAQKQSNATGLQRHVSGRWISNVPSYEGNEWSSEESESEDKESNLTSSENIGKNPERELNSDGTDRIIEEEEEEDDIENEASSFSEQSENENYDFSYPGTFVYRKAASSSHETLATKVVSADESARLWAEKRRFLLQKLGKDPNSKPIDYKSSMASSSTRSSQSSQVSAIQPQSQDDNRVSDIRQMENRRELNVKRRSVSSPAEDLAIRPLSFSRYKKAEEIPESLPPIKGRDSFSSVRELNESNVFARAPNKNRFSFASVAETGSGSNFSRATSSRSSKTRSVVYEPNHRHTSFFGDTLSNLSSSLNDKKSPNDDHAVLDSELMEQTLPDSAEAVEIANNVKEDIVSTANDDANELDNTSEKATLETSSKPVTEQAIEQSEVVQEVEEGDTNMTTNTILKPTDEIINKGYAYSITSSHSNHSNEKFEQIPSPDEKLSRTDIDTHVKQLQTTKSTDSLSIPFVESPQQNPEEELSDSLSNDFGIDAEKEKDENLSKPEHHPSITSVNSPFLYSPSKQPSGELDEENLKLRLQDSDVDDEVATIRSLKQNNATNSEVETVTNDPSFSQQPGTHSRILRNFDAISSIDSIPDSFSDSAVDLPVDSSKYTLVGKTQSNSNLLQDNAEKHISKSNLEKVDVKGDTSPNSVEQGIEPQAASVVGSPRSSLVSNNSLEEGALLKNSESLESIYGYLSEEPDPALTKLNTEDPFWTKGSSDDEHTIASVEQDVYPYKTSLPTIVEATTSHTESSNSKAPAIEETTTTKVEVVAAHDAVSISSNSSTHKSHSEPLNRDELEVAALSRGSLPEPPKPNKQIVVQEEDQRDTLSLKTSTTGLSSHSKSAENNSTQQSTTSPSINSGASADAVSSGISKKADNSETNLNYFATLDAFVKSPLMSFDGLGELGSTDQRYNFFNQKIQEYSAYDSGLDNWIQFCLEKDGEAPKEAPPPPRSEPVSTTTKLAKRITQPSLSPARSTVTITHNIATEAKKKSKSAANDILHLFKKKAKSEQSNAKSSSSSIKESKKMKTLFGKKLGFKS

B1: Rga7-13Myc (protein, UniProt O94466 1-695)
chain: T3 sequence
B2: Trs120-tdTomato (protein, UniProt O14251 1-1210)
chain: MEFDFFSFVAPSRVQSLVLPFGRVRRKSFSSYLQLLRRVSHIQLSDVPVATATRKSSSFNPLAFPLGRLVYNFLTSLDDQQALLEEFEYFRRVFVLIGIVDGSEEQEVEQLCSTLDVWRRRIPHALVAKCIVFNCPEDKENIFNAPNIIIGPRSDFSINSVMRSILCDITAELLEGFSSLEFSIHARSVILSPITDMPHLAPLQRKNSNASIHSLGSSSRPTLTRTPSITSRSVNSVTERSKSLSKGRIENQFGQLYLLAGRVPNALKHFSTAIALSKATGDFLWQGLSLELFTVCLVIMAHLHVDVQIPPNILSMFPSYNDRLNAFGPLKFDALLNFITEMRNVVDQLYQKSTLQPNDAVPGLCFSESILRYAHLLTVVYSCKGFNDNALDHIIAQAPIRPVKKATTYVPNKATICQWIMRAQGQHLNSLSIRERCRIYGAMANMLGSIGFSRLRVKMLRELVASLTPVLLETRRQNASKNGIHPEVIASHTAQSFKSTHYCNILPLISEICQEYGLLKTDGSLLNPELTKWGWSNLQFDVLNELISLCDSLSDYRSILLLISLFFLTSVQTASSSQQISMFKAFRKTYLFASNAGIHINAPYWDPFMITDLKFIGSSENAELIHQRLRNGLPKSIEKGPFIYNPFNRRQDQNQSKSVLVVDEQVAFSIYFRNPLSVSVEVQDVHLETKGVSAKCSHSTFTMRPLSIERTTLTVTPTETGELHIVGCRVKVFGCEPILQYVYEAKDKHKSLHVYLEKSKDVNAELRSLDTIDHLWTYFPFKKDLKTKSFDCIVIASQPKLSLAFQNLTSGKFNFAEYETGELVYVIENTSFVEASHISVLFEDSSSKAFEQAIADKSITADRLYELQFEEFNLPTFTVESSQPFSLSPGERREIHIKIRAKPNSQEGLILFESSVHKPEDTEFYVRRLRIPVSLNISKRVDLKQWSAFMDTEGDPSYCLVLLNFYNHFSEPLFVTVKTASTDESRSVLIKPKADNVILFRLKRFIMSSEEINLDIPNLSTKQFVLSSGFKKSIEDSYTMKKRFWIKEYFLKEVQASWKTDDNLHHGEIYLRNHILSDEMANNLSILPIRIQAWVSYDSEKVTTVCPREPFKLVLEFFGHADTNMRYKISWTQLNTQANTSSFNGLILDGPEEDIVCFNNSKCHVVIERNMFAYTTGMYNIFVRIFNEELQLLSQPVDLDEPILLIVDAK

Legend:
[1] = molecular target: T1, Smi1-mEGFP (Schizosaccharomyces pombe); assay: co-IP; S. pombe cell extracts, proteins under native promoters; polyclonal GFP antibody on protein G Dynabeads, 2 h at 4°C; IP buffer 50 mM HEPES pH 7.5, 150 mM NaCl, 1 mM EDTA, 0.1% NP-40; anti-Myc and anti-GFP blots
[2] = molecular target: T2, Ync13-mECitrine (Schizosaccharomyces pombe); assay: as above
[3] = molecular target: T3, Rga7-mEGFP (Schizosaccharomyces pombe); assay: ectopic mistargeting to mitochondria (Tom20-GBP); protein 1 tagged with mEGFP or mECitrine tethered to mitochondria by Tom20-GBP in live S. pombe cells; recruitment of tdTomato/mCherry/RFP-tagged protein 2 seen by confocal microscopy; Ync13 with Sec1 also tested in rng10Δ cells
[4] = molecular target: T4, Rng10-mEGFP (Schizosaccharomyces pombe); assay: as above

| Binder | binding [1] | binding [2] | binding [3] | binding [4] |
| --- | --- | --- | --- | --- |
| B1 | binds | binds |  |  |
| B2 |  |  | binds | binds |
